{
  "source": "the supplement of paper PMC8728848",
  "binders": {"B1": {"name": "Flo1 (Saccharomyces cerevisiae), P32768 (protein)", "chain": "SGATEACLPAGQRKSGMNINFYQYSLKDSSTYSNAAYMAYGYASKTKLGSVGGQTDISIDYNIPCVSSSGTFPCPQEDSYGNWGCKGMGACSNSQGIAYWSTDLFGFYTTPTNVTLEMTGYFLPPQTGSYTFKFATVDDSAILSVGGATAFNCCAQQQPPITSTNFTIDGIKPWGGSLPPNIEGTVYMYAGYYYPMKVVYSNAVSWGTLPISVTLPDGTTVSDDFEGYVYSFDDDLSQSNCTVPDPSNY"}},
  "experiment_in_all_cases": "glycan array binding signal (z-score within array); higher = stronger binding",
  "settings_in_all_cases": "glycan notation: IUPAC condensed, linker removed",
  "key": {"[1]": {"biological_target": "Neu5Ac(a2-3)Gal(b1-4)GlcNAc(b1-2)[Neu5Ac(a2-3)Gal(b1-4)GlcNAc(b1-4)]Man(a1-3)[GlcNAc(b1-4)][Neu5Ac(a2-3)Gal(b1-4)GlcNAc(b1-2)[Neu5Ac(a2-3)Gal(b1-4)GlcNAc(b1-6)]Man(a1-6)]Man(b1-4)GlcNAc(b1-4)GlcNAc", "method_in_brief": "(§1)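 Glycan array binding is given as a within-array Z-score, which can be read as non-binding when negative. The arrays, 3228 of them, came from the Consortium for Functional Glycomics database and were retained only where the protein sequence was available. Z-scores were averaged across arrays of the same protein sequence at different concentrations or buffers and across linkers.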"}, "[2]": {"biological_target": "Neu5Ac(a2-3)Gal(b1-4)GlcNAc(b1-2)[Neu5Ac(a2-3)Gal(b1-4)GlcNAc(b1-4)]Man(a1-3)[GlcNAc(b1-4)][Neu5Ac(a2-3)Gal(b1-4)GlcNAc(b1-4)Man(a1-6)]Man(b1-4)GlcNAc(b1-4)GlcNAc", "method_in_brief": "as §1"}, "[3]": {"biological_target": "Neu5Ac(a2-3)Gal(b1-4)GlcNAc(b1-2)[Neu5Ac(a2-3)Gal(b1-4)GlcNAc(b1-6)]Man(a1-6)[Neu5Ac(a2-3)Gal(b1-4)GlcNAc(b1-2)Man(a1-3)][GlcNAc(b1-4)]Man(b1-4)GlcNAc(b1-4)GlcNAc", "method_in_brief": "as §1"}, "[4]": {"biological_target": "Neu5Ac(a2-3)Gal(b1-4)GlcNAc(b1-3)Gal", "method_in_brief": "as §1"}, "[5]": {"biological_target": "Neu5Ac(a2-3)Gal(b1-4)GlcNAc(b1-3)Gal(b1-3)GlcNAc", "method_in_brief": "as §1"}, "[6]": {"biological_target": "Neu5Ac(a2-3)Gal(b1-4)GlcNAc(b1-3)Gal(b1-4)GlcNAc", "method_in_brief": "as §1"}, "[7]": {"biological_target": "Neu5Ac(a2-3)Gal(b1-4)GlcNAc(b1-3)Gal(b1-4)GlcNAc(b1-2)Man(a1-3)[Neu5Ac(a2-3)Gal(b1-4)GlcNAc(b1-3)Gal(b1-4)GlcNAc(b1-2)Man(a1-6)]Man(b1-4)GlcNAc(b1-4)GlcNAc", "method_in_brief": "as §1"}, "[8]": {"biological_target": "Neu5Ac(a2-3)Gal(b1-4)GlcNAc(b1-3)Gal(b1-4)GlcNAc(b1-3)Gal(b1-4)GlcNAc", "method_in_brief": "as §1"}, "[9]": {"biological_target": "Neu5Ac(a2-3)Gal(b1-4)GlcNAc(b1-3)Gal(b1-4)GlcNAc(b1-3)Gal(b1-4)GlcNAc(b1-2)Man(a1-3)[Neu5Ac(a2-3)Gal(b1-4)GlcNAc(b1-3)Gal(b1-4)GlcNAc(b1-3)Gal(b1-4)GlcNAc(b1-2)Man(a1-6)]GalNAc", "method_in_brief": "as §1"}, "[10]": {"biological_target": "Neu5Ac(a2-3)Gal(b1-4)GlcNAc(b1-3)Gal(b1-4)GlcNAc(b1-3)GalNAc", "method_in_brief": "as §1"}, "[11]": {"biological_target": "Neu5Ac(a2-3)Gal(b1-4)GlcNAc(b1-3)Gal(b1-4)GlcNAc(b1-3)[Neu5Ac(a2-3)Gal(b1-4)GlcNAc(b1-3)Gal(b1-4)GlcNAc(b1-6)]GalNAc", "method_in_brief": "as §1"}, "[12]": {"biological_target": "Neu5Ac(a2-3)Gal(b1-4)GlcNAc(b1-3)Gal(b1-4)GlcNAc(b1-6)[Gal(b1-3)]GalNAc", "method_in_brief": "as §1"}, "[13]": {"biological_target": "Neu5Ac(a2-3)Gal(b1-4)GlcNAc(b1-3)Gal(b1-4)[Fuc(a1-3)]GlcNAc", "method_in_brief": "as §1"}, "[14]": {"biological_target": "Neu5Ac(a2-3)Gal(b1-4)GlcNAc(b1-3)GalNAc", "method_in_brief": "as §1"}, "[15]": {"biological_target": "Neu5Ac(a2-3)Gal(b1-4)GlcNAc(b1-3)[Neu5Ac(a2-3)Gal(b1-4)GlcNAc(b1-6)]GalNAc", "method_in_brief": "as §1"}, "[16]": {"biological_target": "Neu5Ac(a2-3)Gal(b1-4)GlcNAc(b1-6)GalNAc", "method_in_brief": "as §1"}, "[17]": {"biological_target": "Neu5Ac(a2-3)Gal(b1-4)GlcNAc(b1-6)[Gal(b1-3)]GalNAc", "method_in_brief": "as §1"}, "[18]": {"biological_target": "Neu5Ac(a2-3)Gal(b1-4)GlcNAc(b1-6)[Neu5Ac(a2-3)Gal(b1-3)]GalNAc", "method_in_brief": "as §1"}, "[19]": {"biological_target": "Neu5Ac(a2-3)Gal(b1-4)GlcNAc6S", "method_in_brief": "as §1"}, "[20]": {"biological_target": "Neu5Ac(a2-3)Gal(b1-4)[Fuc(a1-3)]GlcNAc", "method_in_brief": "as §1"}, "[21]": {"biological_target": "Neu5Ac(a2-3)Gal(b1-4)[Fuc(a1-3)]GlcNAc(b1-2)Man", "method_in_brief": "as §1"}, "[22]": {"biological_target": "Neu5Ac(a2-3)Gal(b1-4)[Fuc(a1-3)]GlcNAc(b1-3)Gal", "method_in_brief": "as §1"}, "[23]": {"biological_target": "Neu5Ac(a2-3)Gal(b1-4)[Fuc(a1-3)]GlcNAc(b1-3)Gal(b1-4)GlcNAc", "method_in_brief": "as §1"}, "[24]": {"biological_target": "Neu5Ac(a2-3)Gal(b1-4)[Fuc(a1-3)]GlcNAc(b1-3)Gal(b1-4)[Fuc(a1-3)]GlcNAc(b1-3)Gal(b1-4)[Fuc(a1-3)]GlcNAc", "method_in_brief": "as §1"}, "[25]": {"biological_target": "Neu5Ac(a2-3)Gal(b1-4)[Fuc(a1-3)]GlcNAc(b1-3)GalNAc", "method_in_brief": "as §1"}, "[26]": {"biological_target": "Neu5Ac(a2-3)Gal(b1-4)[Fuc(a1-3)]GlcNAc(b1-6)[Gal(b1-3)]GalNAc", "method_in_brief": "as §1"}, "[27]": {"biological_target": "Neu5Ac(a2-3)Gal(b1-4)[Fuc(a1-3)]GlcNAc(b1-6)[Neu5Ac(a2-3)Gal(b1-3)]GalNAc", "method_in_brief": "as §1"}, "[28]": {"biological_target": "Neu5Ac(a2-3)Gal(b1-4)[Fuc(a1-3)]GlcNAc6S", "method_in_brief": "as §1"}, "[29]": {"biological_target": "Neu5Ac(a2-3)Gal6S(b1-4)GlcNAc", "method_in_brief": "as §1"}, "[30]": {"biological_target": "Neu5Ac(a2-3)Gal6S(b1-4)[Fuc(a1-3)]GlcNAc", "method_in_brief": "as §1"}, "Neu5Ac(a2-3)GalNAc": {"biological_target": "Neu5Ac(a2-3)GalNAc", "method_in_brief": "as §1"}, "[31]": {"biological_target": "Neu5Ac(a2-3)GalNAc(b1-4)GlcNAc", "method_in_brief": "as §1"}, "[32]": {"biological_target": "Neu5Ac(a2-3)[GalNAc(b1-4)]Gal(b1-4)Glc", "method_in_brief": "as §1"}, "[33]": {"biological_target": "Neu5Ac(a2-3)[GalNAc(b1-4)]Gal(b1-4)GlcNAc", "method_in_brief": "as §1"}, "[34]": {"biological_target": "Neu5Ac(a2-3)[GalNAc(b1-4)]Gal(b1-4)GlcNAc(b1-3)GalNAc", "method_in_brief": "as §1"}, "[35]": {"biological_target": "Neu5Ac(a2-3)[Neu5Ac(a2-6)]GalNAc", "method_in_brief": "as §1"}},
  "note": "The other results are listed elsewhere or left out.",
  "data": [
    {"binder": "B1", "values": [
      {"measurement": "glycan array binding signal (z-score)", "setting": "[1]", "result": -0.383},
      {"measurement": "glycan array binding signal (z-score)", "setting": "[2]", "result": 0.143},
      {"measurement": "glycan array binding signal (z-score)", "setting": "[3]", "result": -0.498},
      {"measurement": "glycan array binding signal (z-score)", "setting": "[4]", "result": -0.134},
      {"measurement": "glycan array binding signal (z-score)", "setting": "[5]", "result": -0.378},
      {"measurement": "glycan array binding signal (z-score)", "setting": "[6]", "result": -0.229},
      {"measurement": "glycan array binding signal (z-score)", "setting": "[7]", "result": -0.401},
      {"measurement": "glycan array binding signal (z-score)", "setting": "[8]", "result": 0.084},
      {"measurement": "glycan array binding signal (z-score)", "setting": "[9]", "result": 0.103},
      {"measurement": "glycan array binding signal (z-score)", "setting": "[10]", "result": -0.25},
      {"measurement": "glycan array binding signal (z-score)", "setting": "[11]", "result": 0.23},
      {"measurement": "glycan array binding signal (z-score)", "setting": "[12]", "result": -0.03},
      {"measurement": "glycan array binding signal (z-score)", "setting": "[13]", "result": -0.296},
      {"measurement": "glycan array binding signal (z-score)", "setting": "[14]", "result": -0.628},
      {"measurement": "glycan array binding signal (z-score)", "setting": "[15]", "result": 0.545},
      {"measurement": "glycan array binding signal (z-score)", "setting": "[16]", "result": -0.187},
      {"measurement": "glycan array binding signal (z-score)", "setting": "[17]", "result": -0.142},
      {"measurement": "glycan array binding signal (z-score)", "setting": "[18]", "result": -0.544},
      {"measurement": "glycan array binding signal (z-score)", "setting": "[19]", "result": -0.354},
      {"measurement": "glycan array binding signal (z-score)", "setting": "[20]", "result": -0.03},
      {"measurement": "glycan array binding signal (z-score)", "setting": "[21]", "result": 0.056},
      {"measurement": "glycan array binding signal (z-score)", "setting": "[22]", "result": -0.101},
      {"measurement": "glycan array binding signal (z-score)", "setting": "[23]", "result": 0.779},
      {"measurement": "glycan array binding signal (z-score)", "setting": "[24]", "result": -0.17},
      {"measurement": "glycan array binding signal (z-score)", "setting": "[25]", "result": 1.83},
      {"measurement": "glycan array binding signal (z-score)", "setting": "[26]", "result": 1.39},
      {"measurement": "glycan array binding signal (z-score)", "setting": "[27]", "result": 0.941},
      {"measurement": "glycan array binding signal (z-score)", "setting": "[28]", "result": -0.657},
      {"measurement": "glycan array binding signal (z-score)", "setting": "[29]", "result": 1.39},
      {"measurement": "glycan array binding signal (z-score)", "setting": "[30]", "result": -0.101},
      {"measurement": "glycan array binding signal (z-score)", "setting": "Neu5Ac(a2-3)GalNAc", "result": 0.058},
      {"measurement": "glycan array binding signal (z-score)", "setting": "[31]", "result": -0.312},
      {"measurement": "glycan array binding signal (z-score)", "setting": "[32]", "result": 0.01},
      {"measurement": "glycan array binding signal (z-score)", "setting": "[33]", "result": 0.215},
      {"measurement": "glycan array binding signal (z-score)", "setting": "[34]", "result": 0.408},
      {"measurement": "glycan array binding signal (z-score)", "setting": "[35]", "result": -0.636}
    ]}
  ]
}
